Test results reported in PubChem BioAssay AID540256 (National Center for Advancing Translational Sciences (NCATS), 2011).
In all, about 300,000 compounds went through this assay and about 3,700 (1.2%) were called active. The inconclusive results got no clear call from the source; some entries with a clear call stand among them for comparison. Calls come from the whole dose curve; tested in HEK293 cells. Potencies of inconclusive entries are doubtful fits and often do not repeat.

Experiment: qHTS for Inhibitors of binding or entry into cells for Lassa Virus; note: nearly all actives have a fitted effect of over 50% in size
Details: Lassa virus pseudotype entry inhibition, cell reporter; series mostly up to 37.9 µM
Potency is the fitted concentration of half-maximal effect.

**Q.** Which Potency does the source give for CC(C)=NNc1nc2c(c(=O)[nH]c(=O)n2C)n1CCCc1ccccc1 here?
**A.** inactive

**Q.** With Cc1cc(C)nc(N/N=C/c2cc(Br)ccc2O)n1 as the molecule, how does the Potency read?
**A.** inconclusive: 35.5 µM [inhibitor, single point]

**Q.** For O=C(CN(Cc1ccc(F)cc1)C(=O)CNS(=O)(=O)c1ccccc1)NCC1CCCO1 (configuration not stated), which Potency is on record?
**A.** inconclusive: 5.62 µM [inhibitor, single point]

**Q.** For Cc1nc(SCc2cc(=O)c3cccc(F)c3[nH]2)n[nH]1, which Potency is on record?
**A.** inactive

**Q.** With CCc1ccc(NC(=O)CC2C(=O)NCCN2C(=O)c2ccccc2OC)cc1 (configuration not stated) as the molecule, how does the Potency read?
**A.** inconclusive: 3.55 µM [inhibitor, full curve, poor fit]

**Q.** With CCNC(=S)N(CCc1cccc(C)c1)Cc1cc2cc(OC)c(OC)cc2[nH]c1=O as the molecule, how does the Potency read?
**A.** inconclusive: 17.8 µM [inhibitor, partial curve, poor fit]

**Q.** With CCCCN(C(=O)/C=C/c1ccccc1)C1CCS(=O)(=O)C1 (configuration not stated) as the molecule, how does the Potency read?
**A.** inconclusive: 10 µM [inhibitor, partial curve, poor fit]

**Q.** Which Potency does the source give for S=C(NCCc1cccc(Cl)c1)NC1CCCCC1 here?
**A.** inactive

**Q.** Which Potency does the source give for COc1cc(CNCCCN2CCOCC2)c(Br)cc1OC(C)C here?
**A.** inconclusive: 0.794 µM [inhibitor, single point]

**Q.** Which Potency does the source give for O=C(CCl)Nc1cccc2ncccc12 here?
**A.** inconclusive: 10 µM [inhibitor, partial curve, poor fit]

**Q.** Which Potency does the source give for COc1cccc(CNC(=O)CCn2ccc3cc(S(=O)(=O)N4CCC(C)CC4)ccc32)c1 here?
**A.** inconclusive: 12.6 µM [inhibitor, partial curve, poor fit]

**Q.** With CCC(C)c1ccccc1N1CC(C(=O)NCCC2=CCCCC2)CC1=O (configuration not stated) as the molecule, how does the Potency read?
**A.** inconclusive: 6.31 µM [inhibitor, partial curve, poor fit]

**Q.** For O=C(NCc1ccco1)c1c(F)cccc1Cl, which Potency is on record?
**A.** inconclusive: 28.2 µM [activator, single point]

**Q.** With CCOc1ccccc1NC(=O)Nc1ccc2nc(N3CCN(C)CC3)cc(C)c2c1 as the molecule, how does the Potency read?
**A.** inconclusive: 31.6 µM [inhibitor, single point]

**Q.** For CC(CCc1ccccc1)NC(=O)CNC(=S)N(Cc1cccs1)C1CCCC1 (configuration not stated), which Potency is on record?
**A.** inconclusive: 35.5 µM [inhibitor, partial curve, poor fit]

**Q.** Which Potency does the source give for COc1cccc(-c2nc(CS(=O)(=O)CC(=O)NCCCN3C(C)CCCC3C)c(C)o2)c1 (configuration not stated) here?
**A.** inconclusive: 0.355 µM [activator, full curve, poor fit]

**Q.** Which Potency does the source give for COc1ccccc1CNc1nc2nc3c(c(=O)n2[nH]1)CCC3 here?
**A.** inconclusive: 25.9 µM [inhibitor, single point]

**Q.** With C/C=C/Cn1c(SCc2ccc(Cl)cc2)nc2c1c(=O)[nH]c(=O)n2C as the molecule, how does the Potency read?
**A.** inconclusive: 10 µM [inhibitor, partial curve]

**Q.** With COc1ccccc1Cn1c(=S)[nH]c2cc(C(=O)NCCN(C)C)ccc2c1=O as the molecule, how does the Potency read?
**A.** inactive

**Q.** Which Potency does the source give for COc1cc(/C=N/NC(=O)c2ccoc2C)cc(OC)c1O here?
**A.** inconclusive: 20.6 µM [activator, partial curve]

**Q.** For FC(F)(F)c1cnc(-c2cnc3c(-c4ccc(Cl)cc4)cnn3c2)c(Cl)c1, which Potency is on record?
**A.** inactive

**Q.** Which Potency does the source give for CCn1c(SCC(=O)Nc2ccc3c(c2)OCCO3)nnc1-c1cccs1 here?
**A.** inconclusive: 32.6 µM [activator, partial curve, poor fit]

**Q.** For CCOc1ccc(C2C(=O)N(C3CCCCCC3)CC(=O)N2Cc2ccc(F)cc2)cc1OC (configuration not stated), which Potency is on record?
**A.** inactive

**Q.** For CC(=O)OC[C@H]1O[C@@H](n2ncc(=O)[nH]c2=O)[C@H](OC(C)=O)[C@@H]1OC(C)=O, which Potency is on record?
**A.** active: 0.731 µM

**Q.** For Fc1ccc(NC(=S)Nc2ccccc2Cl)cc1, which Potency is on record?
**A.** inconclusive: 4.47 µM [activator, partial curve, poor fit]

**Q.** For Cc1ccc(C(=O)N(Nc2nc3ccccc3s2)C(=O)c2ccc(C)cc2)cc1, which Potency is on record?
**A.** inconclusive: 6.31 µM [inhibitor, single point]

**Q.** For COc1cc2c(c(OC)c1OC)-c1ccc(OC)c(=O)cc1C(NC(=O)c1ccccc1)CC2 (configuration not stated), which Potency is on record?
**A.** inconclusive: 0.1 µM [inhibitor, full curve, poor fit]

**Q.** For Cc1cccc(NC(=O)CN2C(=O)CCS(=O)(=O)c3ccccc32)c1C, which Potency is on record?
**A.** inconclusive: 6.31 µM [activator, single point]

**Q.** Which Potency does the source give for COc1cccc(-c2noc(C(C)n3nc(C)c([N+](=O)[O-])c3C)n2)c1 (configuration not stated) here?
**A.** inconclusive: 35.5 µM [inhibitor, single point]

**Q.** With COc1ccc(COCCN2CCN(S(=O)(=O)c3ccc(C)cc3)CCC2=O)cc1 as the molecule, how does the Potency read?
**A.** inconclusive: 8.2 µM [inhibitor, partial curve]

**Q.** With COc1ccc(-c2cc(C)no2)cc1S(=O)(=O)N1CCN(c2ccccn2)CC1 as the molecule, how does the Potency read?
**A.** inconclusive: 10 µM [inhibitor, partial curve, poor fit]

**Q.** With COc1ccccc1NS(=O)(=O)c1cccc(C(=O)OCC(=O)NC2CC2)c1 as the molecule, how does the Potency read?
**A.** inconclusive: 0.355 µM [activator, full curve, poor fit]

**Q.** Which Potency does the source give for COc1cc2c(cc1OC)C(C)N(C(=S)Nc1ccccc1)CC2 (configuration not stated) here?
**A.** inconclusive: 1.78 µM [inhibitor, partial curve, poor fit]

**Q.** For COc1c(C)cccc1C(=O)Nc1ccc(Cl)c(-c2nc3cc(C)ccc3o2)c1, which Potency is on record?
**A.** inconclusive: 31.6 µM [inhibitor, partial curve, poor fit]

**Q.** For N#Cc1ccsc1NC(=O)CN1CCN(c2ccccc2O)CC1, which Potency is on record?
**A.** inconclusive: 0.708 µM [activator, single point]

**Q.** Which Potency does the source give for O=C(C/C=N/OCc1ccc(Cl)cc1)c1cnc(-c2ccccc2)s1 here?
**A.** inconclusive: 22.4 µM [inhibitor, single point]

**Q.** For Cc1cc2cc(CNC(=O)c3ccc(C)c([N+](=O)[O-])c3)ccc2[nH]1, which Potency is on record?
**A.** inconclusive: 9.2 µM [inhibitor, partial curve, poor fit]

**Q.** With CCOc1ccc(OCCSc2nc3ccccc3c(=O)[nH]2)cc1 as the molecule, how does the Potency read?
**A.** inactive

**Q.** With Cc1ccc(C)c(NC(=S)N2CCC(c3nc4ccccc4s3)CC2)c1 as the molecule, how does the Potency read?
**A.** inconclusive: 4.61 µM [inhibitor, single point]

**Q.** Which Potency does the source give for O=C(O)c1cccc(-n2cnc3cccnc32)c1 here?
**A.** inconclusive: 1.12 µM [activator, full curve, poor fit]

**Q.** With CCOC(=O)Cn1nc(C)n(-c2ccc(C)cc2)c1=O as the molecule, how does the Potency read?
**A.** inconclusive: 16.4 µM [activator, partial curve, poor fit]

**Q.** With O=C(NCC(c1cccnc1)N1CCN(Cc2ccccc2)CC1)C(=O)Nc1cccc(Cl)c1 (configuration not stated) as the molecule, how does the Potency read?
**A.** inconclusive: 3.98 µM [inhibitor, partial curve, poor fit]

**Q.** With CCN(CC)S(=O)(=O)c1cccc(NC(=O)C2SC(=Nc3ccc(C)cc3C)C(C(=O)NCC3CCCO3)=C2N)c1 (configuration not stated) as the molecule, how does the Potency read?
**A.** inactive

**Q.** For COc1ccc(CN(Cc2ccc(OC)cc2)C(=O)c2cccs2)cc1, which Potency is on record?
**A.** inconclusive: 10 µM [inhibitor, partial curve, poor fit]

**Q.** For COc1cc2c(cc1OC)C1(Nc3c-2c(C)nn3-c2ccccc2)C(=O)Nc2ccccc21 (configuration not stated), which Potency is on record?
**A.** inconclusive: 35.5 µM [inhibitor, single point]

**Q.** Which Potency does the source give for COc1cccc(NC(=O)c2cc3c(-c4ccc(Cl)cc4)nn(C)c3s2)c1 here?
**A.** inconclusive: 35.5 µM [inhibitor, single point]

**Q.** With O=C(COC(=O)c1ccc(O)cc1)NCc1ccc2c(c1)OCO2 as the molecule, how does the Potency read?
**A.** inconclusive: 0.651 µM [inhibitor, full curve, poor fit]

**Q.** With COc1ccc(CC(=O)Nc2cc(S(=O)(=O)N3CCCCC3)ccc2C)cc1OC as the molecule, how does the Potency read?
**A.** inconclusive: 6.31 µM [inhibitor, partial curve, poor fit]

**Q.** Which Potency does the source give for COC(=O)c1ccc(-n2nnnc2SCc2ccccc2OC)cc1 here?
**A.** inconclusive: 35.5 µM [inhibitor, single point]

**Q.** For CC(C)(c1ccc(O)c([N+](=O)[O-])c1)c1ccc(O)c([N+](=O)[O-])c1, which Potency is on record?
**A.** inconclusive: 0.562 µM [inhibitor, partial curve, poor fit]

**Q.** Which Potency does the source give for Cc1cc(O)ccc1N/C=C/c1onc(C)c1[N+](=O)[O-] here?
**A.** inconclusive: 35.5 µM [inhibitor, single point]

**Q.** For CCOC(=O)c1nn(-c2cccc(OC)c2)c(-c2ccccc2)c1C(=O)c1ccccc1, which Potency is on record?
**A.** inconclusive: 7.94 µM [inhibitor, partial curve, poor fit]

**Q.** Which Potency does the source give for Cc1cc(S(=O)(=O)Nc2cccc(O)c2)c(C)s1 here?
**A.** inactive

**Q.** With C(=N\NC1=Nc2cccc3cccc1c23)/c1ccccc1 as the molecule, how does the Potency read?
**A.** inconclusive: 2.59 µM [activator, partial curve, poor fit]

**Q.** For CNC(=O)c1cc(-c2ccc(F)cc2)cc(-c2ccc(S(=O)(=O)N3CCCC3)cc2)c1N, which Potency is on record?
**A.** active: 8.88 µM

**Q.** For O=C1NC(=Nc2ccccc2)S/C1=C\C=C\c1ccco1, which Potency is on record?
**A.** inconclusive: 28.2 µM [inhibitor, single point]

**Q.** With COc1ccc2c(c1)C=C(C(=O)OCc1cccnc1)CO2 as the molecule, how does the Potency read?
**A.** inconclusive: 2 µM [inhibitor, partial curve, poor fit]

**Q.** Which Potency does the source give for CCn1ncc(Br)c1C(=O)Nc1ccc2c(c1)OCCO2 here?
**A.** inactive

**Q.** For CCn1cc(-c2cc(C(=O)O)c3ccccc3n2)cn1, which Potency is on record?
**A.** inconclusive: 22.4 µM [inhibitor, partial curve, poor fit]

**Q.** With CC1=CC(C)(C)Nc2ccc(OC(=O)c3cccnc3)cc21 as the molecule, how does the Potency read?
**A.** inconclusive: 20.6 µM [inhibitor, partial curve, poor fit]

**Q.** With Cc1ccc(-c2csc(NC(=O)c3ccc([N+](=O)[O-])o3)n2)cc1 as the molecule, how does the Potency read?
**A.** inconclusive: 14.1 µM [inhibitor, partial curve, poor fit]

**Q.** Which Potency does the source give for NC(=O)c1nsc(C(=O)N(c2ccc(Cl)cc2)C(C(=O)NCC2CCCO2)c2cccs2)c1N (configuration not stated) here?
**A.** inconclusive: 35.5 µM [inhibitor, single point]
